{"sequences": {"note": "By UniProt entry, the sequences of proteins in these tests, tags left out. Where a name states a change or a piece, a line headed by the entry shows the natural chain unless it says otherwise.", "UniProt Q9UBU2": "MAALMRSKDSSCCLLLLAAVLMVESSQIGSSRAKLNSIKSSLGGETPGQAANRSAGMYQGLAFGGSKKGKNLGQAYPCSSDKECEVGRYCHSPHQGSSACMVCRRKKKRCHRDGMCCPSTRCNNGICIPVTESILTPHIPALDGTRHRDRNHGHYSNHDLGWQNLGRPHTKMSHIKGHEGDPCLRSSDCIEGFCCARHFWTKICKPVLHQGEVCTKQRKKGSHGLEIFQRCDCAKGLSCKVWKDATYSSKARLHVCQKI"}, "source": "patent US20230406915A1", "about": "(HJB HANGZHOU, published 2023)", "binders": {"B1": {"name": "M-747 (antibody, human IgG1, kappa, V domains shown)", "VH": "QVQLVQSGSELKKPGASVKVSCKASGYTFTNYWMNWVRQAPGQGLEWMGMIHPSDSETRLNQKFKDRVTITVDKSTSTAYMELSSLRSEDTAVYYCAREGRLGLRSYAMDYWGQGTLVTVSS", "VL": "DIVMTQSPDSLAVSLGERATINCKSSQSLLNSSNQKNYLAWYQQKPGQPPKLLVYFASTRESGVPDRFSGSGSGTDFTLTISSLQAEDVAVYFCQQHYITPLTFGGGTKVEIKR", "notes": "Humanized anti-DKK2 parental antibody; also called parental antibody; parental molecule"}, "B2": {"name": "M-751 (antibody, V domains shown)", "VH": "B1 VH with S9A, L11V, A16S, K65Q, D66G", "VL": "DIQMTQSPSSLSASVGDRVTITCRSSQSLLNSSNQKNYLAWYQQKPGKVPKLLIYFASTRESGVPSRFSGSGSGTDFTLTISSLQPEDVATYFCQQHYITPLTFGGGTKVEIKR", "notes": "also called candidate antibody"}, "B3": {"name": "M-755 (antibody, V domains shown)", "VH": "B1 VH with S9A, L11V, F64L, K65Q, D66G, S84R, E89D", "VL": "B2 VL with V49A, V89F", "notes": "as for B2"}}, "note": "Substitutions are numbered along the chain they refer to. These are yes or no findings as the source states them, for the method shown. Binding calls can cover weak binding; strength is not graded here."}
{"molecular_target": "human DKK2 protein (R & D system, catalog number: 6628-DK-010) (human) (UniProt Q9UBU2)", "test": "ELISA with chemiluminescent readout at 470 nm on plate-coated human DKK2 (1 ng/well), detection with goat anti-human IgG-Fc HRP"}
{"binder": "B1", "binding": "binds"}
{"binder": "B2", "binding": "binds"}
{"binder": "B3", "binding": "binds"}
